# Results reported in patent EP0595659A2, “Extracellular matrix receptor ligands that modulate leukocyte function” (Bristol-Myers Squibb Company, priority 1992, dated 1994).
# Some entries share one result that the patent states for a list of compounds.
# System: 4-1BB (complete 4-1BB protein from a murine T cell cDNA library, expressed in COS cells)
# Assay: Blocking by simple carbohydrates of the binding of biotin-conjugated extracellular matrix protein to COS cell transfectants expressing 4-1BB (fluorescence)
# Type: cell-based
# Conditions: for effect on the 4-1BB-fibronectin interaction: 400 µg of the simple carbohydrate, one hour at 22 °C, then 4 µg biotin-conjugated fibronectin, COS cell transfectants expressing 4-1BB; for effect on the interaction between 4-1BB and extracellular matrix proteins: blocking experiments with simple sugars (400 µg per method b85), summary in the description
Compound,effect on the 4-1BB-fibronectin interaction,effect on the interaction between 4-1BB and extracellular matrix proteins
CC(=O)N[C@H]1C(O)O[C@H](CO)[C@@H](O)[C@@H]1O (some centres unmarked) [N-acetyl-glucosamine],little or no effect,did not affect
CC(=O)N[C@H]1C(O)O[C@H](CO)[C@H](O)[C@@H]1O (some centres unmarked) [N-acetyl-galactosamine],little or no effect,did not affect
OCC1OC(O)C(O)C(O)C1O (centres unmarked) [galactose],little or no effect,–
CC(=O)N[C@H]1[C@H]([C@H](O)[C@H](O)CO)OC(O)(C(=O)O)C[C@@H]1O (some centres unmarked) [N-acetyl-neuraminic acid],little or no effect,did not affect
O=S(=O)(O)OCC1OC(O)C(O)C(O)C1O (centres unmarked) [galactose-6-sulfate],little or no effect,–
O=S(=O)(O)OCC1OC(O)C(O)C(O)C1O (centres unmarked) [glucose-6-sulfate],–,did not affect
fucose,little or no effect,did not affect
